# Source: the supplement of paper PMC8728848
# This is one part of the list.
# Columns and labels:
# Assay in all cases: glycan array binding signal (z-score within array); higher = stronger binding
# Settings in all cases: glycan notation: IUPAC condensed, linker removed
# Glc(b1-6)Glc = biological target: Glc(b1-6)Glc
# Method in brief: (§1)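 Glycan array data came from 3228 arrays in the Consortium for Functional Glycomics database, and only arrays with an available protein sequence were kept. Glycan names were put into IUPAC-condensed notation, and columns mapping to the same glycan were averaged. The binding signal is a within-array Z-score, averaged across arrays of one protein sequence run at different concentrations or buffers and across linkers. A negative Z-score can be read as non-binding.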
# GlcA(b1-3)Gal = biological target: GlcA(b1-3)Gal
# Method in brief: as §1
# GlcA(b1-3)GlcNAc = biological target: GlcA(b1-3)GlcNAc
# Method in brief: as §1
# GlcA(b1-6)Gal = biological target: GlcA(b1-6)Gal
# Method in brief: as §1
# [1] = biological target: GlcA3S(b1-3)Gal(b1-4)GlcNAc(b1-2)Man
# Method in brief: as §1
# [2] = biological target: GlcA3S(b1-3)Gal(b1-4)GlcNAc(b1-3)Gal(b1-4)Glc
# Method in brief: as §1
# [3] = biological target: GlcNAc(a1-3)Gal(b1-4)GlcNAc
# Method in brief: as §1
# [4] = biological target: GlcNAc(a1-4)Gal(b1-3)GlcNAc
# Method in brief: as §1
# [5] = biological target: GlcNAc(a1-4)Gal(b1-4)GalNAc
# Method in brief: as §1
# [6] = biological target: GlcNAc(a1-4)Gal(b1-4)GlcNAc
# Method in brief: as §1
# [7] = biological target: GlcNAc(a1-4)Gal(b1-4)GlcNAc(b1-3)Gal(b1-4)Glc
# Method in brief: as §1
# [8] = biological target: GlcNAc(a1-4)Gal(b1-4)GlcNAc(b1-3)Gal(b1-4)GlcNAc
# Method in brief: as §1
# [9] = biological target: GlcNAc(a1-4)Gal(b1-4)GlcNAc(b1-3)Gal(b1-4)GlcNAc(b1-3)Gal(b1-4)GlcNAc
# Method in brief: as §1
# [10] = biological target: GlcNAc(a1-4)Gal(b1-4)GlcNAc(b1-3)Gal(b1-4)[Fuc(a1-3)]GlcNAc(b1-3)Gal(b1-4)[Fuc(a1-3)]GlcNAc
# Method in brief: as §1
# [11] = biological target: GlcNAc(a1-6)Gal(b1-4)GlcNAc
# Method in brief: as §1
# [12] = biological target: GlcNAc(b1-2)Gal(b1-3)GalNAc
# Method in brief: as §1
# [13] = biological target: GlcNAc(b1-2)Man(a1-3)[GlcNAc(b1-2)Man(a1-6)]Man(b1-4)GlcNAc(b1-4)GlcNAc
# Method in brief: as §1
# [14] = biological target: GlcNAc(b1-2)Man(a1-3)[GlcNAc(b1-2)Man(a1-6)]Man(b1-4)GlcNAc(b1-4)[Fuc(a1-6)]GlcNAc
# Method in brief: as §1
# [15] = biological target: GlcNAc(b1-2)Man(a1-3)[GlcNAc(b1-4)][GlcNAc(b1-2)Man(a1-6)]Man(b1-4)GlcNAc(b1-4)GlcNAc
# Method in brief: as §1
# [16] = biological target: GlcNAc(b1-2)Man(a1-3)[GlcNAc(b1-4)][GlcNAc(b1-2)Man(a1-6)]Man(b1-4)GlcNAc(b1-4)[Fuc(a1-6)]GlcNAc
# Method in brief: as §1
# [17] = biological target: GlcNAc(b1-2)[GlcNAc(b1-4)]Man(a1-3)[GlcNAc(b1-2)Man(a1-6)]Man(b1-4)GlcNAc(b1-4)GlcNAc
# Method in brief: as §1
# [18] = biological target: GlcNAc(b1-2)[GlcNAc(b1-4)]Man(a1-3)[GlcNAc(b1-4)][GlcNAc(b1-2)Man(a1-6)]Man(b1-4)GlcNAc(b1-4)GlcNAc
# Method in brief: as §1
# [19] = biological target: GlcNAc(b1-2)[GlcNAc(b1-4)]Man(a1-3)[GlcNAc(b1-4)][GlcNAc(b1-2)[GlcNAc(b1-6)]Man(a1-6)]Man(b1-4)GlcNAc(b1-4)GlcNAc
# Method in brief: as §1
# [20] = biological target: GlcNAc(b1-2)[GlcNAc(b1-4)]Man(a1-3)[GlcNAc(b1-4)][GlcNAc(b1-2)[GlcNAc(b1-6)]Man(a1-6)]Man(b1-4)GlcNAc(b1-4)[Fuc(a1-6)]GlcNAc
# Method in brief: as §1
# [21] = biological target: GlcNAc(b1-2)[GlcNAc(b1-6)]Man(a1-6)[GlcNAc(b1-2)Man(a1-3)]Man(b1-4)GlcNAc(b1-4)GlcNAc
# Method in brief: as §1
# [22] = biological target: GlcNAc(b1-2)[GlcNAc(b1-6)]Man(a1-6)[GlcNAc(b1-2)Man(a1-3)]Man(b1-4)GlcNAc(b1-4)[Fuc(a1-6)]GlcNAc
# Method in brief: as §1
# [23] = biological target: GlcNAc(b1-2)[GlcNAc(b1-6)]Man(a1-6)[GlcNAc(b1-4)][GlcNAc(b1-2)Man(a1-3)]Man(b1-4)GlcNAc(b1-4)GlcNAc
# Method in brief: as §1
# GlcNAc(b1-3)Fuc = biological target: GlcNAc(b1-3)Fuc
# Method in brief: as §1
# GlcNAc(b1-3)Gal = biological target: GlcNAc(b1-3)Gal
# Method in brief: as §1
# [24] = biological target: GlcNAc(b1-3)Gal(b1-3)GalNAc
# Method in brief: as §1
# GlcNAc(b1-3)Gal(b1-4)Glc = biological target: GlcNAc(b1-3)Gal(b1-4)Glc
# Method in brief: as §1
# [25] = biological target: GlcNAc(b1-3)Gal(b1-4)GlcNAc
# Method in brief: as §1
# [26] = biological target: GlcNAc(b1-3)Gal(b1-4)GlcNAc(b1-2)Man(a1-3)[GlcNAc(b1-3)Gal(b1-4)GlcNAc(b1-2)Man(a1-6)]Man(b1-4)GlcNAc(b1-4)GlcNAc
# Method in brief: as §1
# [27] = biological target: GlcNAc(b1-3)Gal(b1-4)GlcNAc(b1-2)Man(a1-3)[GlcNAc(b1-3)Gal(b1-4)GlcNAc(b1-2)Man(a1-6)]Man(b1-4)GlcNAc(b1-4)[Fuc(a1-6)]GlcNAc
# Method in brief: as §1
# [28] = biological target: GlcNAc(b1-3)Gal(b1-4)GlcNAc(b1-2)[GlcNAc(b1-3)Gal(b1-4)GlcNAc(b1-6)]Man(a1-6)[GlcNAc(b1-3)Gal(b1-4)GlcNAc(b1-2)Man(a1-3)]Man(b1-4)GlcNAc(b1-4)GlcNAc
# Method in brief: as §1
# [29] = biological target: GlcNAc(b1-3)Gal(b1-4)GlcNAc(b1-3)Gal(b1-4)GlcNAc
# Method in brief: as §1
# [30] = biological target: GlcNAc(b1-3)Gal(b1-4)GlcNAc(b1-3)Gal(b1-4)GlcNAc(b1-2)Man(a1-3)[GlcNAc(b1-3)Gal(b1-4)GlcNAc(b1-3)Gal(b1-4)GlcNAc(b1-2)Man(a1-6)]Man(b1-4)GlcNAc(b1-4)GlcNAc
# Method in brief: as §1
binder,measurement,setting,value
"Clec18Av1 (Homo sapiens), A5D8T8 (protein) MLHPETSPGRGHLLAVLLALLGTAWAEVWPPQLQEQAPMAGALNRKESFLLLSLHNRLRSWVQPPAADMRRLDWSDSLAQLAQARAALCGTPTPSLASGLWRTLQVGWNMQLLPAGLVSFVEVVSLWFAEGQRYSHAAGECARNATCTHYTQLVWATSSQLGCGRHLCSAGQAAIEAFVCAYSPRGNWEVNGKTIVPYKKGAWCSLCTASVSGCFKAWDHAGGLCEVPRNPCRMSCQNHGRLNISTCHCHCPPGYTGRYCQVRCSLQCVHGRFREEECSCVCDIGYGGAQCATKVHFPFHTCDLRIDGDCFMVSSEADTYYRARMKCQRKGGVLAQIKSQKVQDILAFYLGRLETTNEVIDSDFETRNFWIGLTYKTAKDSFRWATGEHQAFTSFAFGQPDNHGFGNCVELQASAAFNWNDQRCKTRNRYICQFAQEHISRWGPGS",glycan array binding signal (z-score),Glc(b1-6)Glc,-0.655
same,glycan array binding signal (z-score),GlcA(b1-3)Gal,-0.838
same,glycan array binding signal (z-score),GlcA(b1-3)GlcNAc,-0.686
same,glycan array binding signal (z-score),GlcA(b1-6)Gal,-0.029
same,glycan array binding signal (z-score),[1],-0.197
same,glycan array binding signal (z-score),[2],-0.835
same,glycan array binding signal (z-score),[3],-0.838
same,glycan array binding signal (z-score),[4],1.74
same,glycan array binding signal (z-score),[5],-0.75
same,glycan array binding signal (z-score),[6],-0.754
same,glycan array binding signal (z-score),[7],-0.356
same,glycan array binding signal (z-score),[8],-0.749
same,glycan array binding signal (z-score),[9],-0.854
same,glycan array binding signal (z-score),[10],4.79
same,glycan array binding signal (z-score),[11],1.9
same,glycan array binding signal (z-score),[12],-0.821
same,glycan array binding signal (z-score),[13],-0.707
same,glycan array binding signal (z-score),[14],3.54
same,glycan array binding signal (z-score),[15],-0.84
same,glycan array binding signal (z-score),[16],-0.852
same,glycan array binding signal (z-score),[17],-0.871
same,glycan array binding signal (z-score),[18],-0.842
same,glycan array binding signal (z-score),[19],-0.821
same,glycan array binding signal (z-score),[20],-0.868
same,glycan array binding signal (z-score),[21],-0.432
same,glycan array binding signal (z-score),[22],-0.853
same,glycan array binding signal (z-score),[23],-0.855
same,glycan array binding signal (z-score),GlcNAc(b1-3)Fuc,-0.838
same,glycan array binding signal (z-score),GlcNAc(b1-3)Gal,-0.851
same,glycan array binding signal (z-score),[24],-0.702
same,glycan array binding signal (z-score),GlcNAc(b1-3)Gal(b1-4)Glc,-0.676
same,glycan array binding signal (z-score),[25],-0.811
same,glycan array binding signal (z-score),[26],1.53
same,glycan array binding signal (z-score),[27],0.797
same,glycan array binding signal (z-score),[28],2.73
same,glycan array binding signal (z-score),[29],-0.861
same,glycan array binding signal (z-score),[30],-0.385
